{"source": "patent US20160251386A1", "about": "(published 2016)", "binders": {"B1": {"name": "free tagged factor (16 kD form) released from the cofactor in U2OS-pESY1c conditioned medium by high salt and ultrafiltration (protein)", "chain": "EPLAVVDLRPQSSVKVEVHFQDKVEEMSIRLDQTVAELKKHLKTVVQLSTSNMLLFYLDQEAPFGPEEMKYSSRALHSYGIRDGDKIYVEPRMKSNSADIQHSGGRSSLEGPRFEQKLISEEDLNMHTGHHHHHH"}}, "biological_target": "free tagged factor (16 kD form) released from the cofactor in U2OS-pESY1c conditioned medium by high salt and ultrafiltration (chicken (Gallus gallus))", "assay": "SDS gel and Western blot, self-association (dimer band)", "note": "These are yes or no findings as the source states them, for the method shown. Some entries that bind do so weakly or less than the wild type. Where a sequence is shown, tags or fusion partners need not be part of it."}
{"binder": "B1", "values": [{"measurement": "binding", "value": "binds"}]}
